## Primary screen of a compound library

Data taken from ChEMBL document CHEMBL3988442, “University of Dundee, Small-Polar-MMV Screening Library” (2021).

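Whole-parasite assay of Trypanosoma brucei over 72 hours; the read-out is not stated. Concentration: 30 µM. Direction is inferred from retests: higher values go with stronger inhibition. Values scatter widely below zero; nearly all retest evidence comes from the higher of the two concentrations used. Of about 64,000 compounds tested this way, about 940 (1.5%) reached 50% or more in at least one test.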

Each number is a percent effect as filed. The controls that fix the scale are not given in the record; negative values are as filed. This is an unselected part of the compounds tested.

| SMILES | Percent Effect |
|---|---|
| `CC1CCCN(Cc2ccnc(-c3cccnc3)n2)C1.O=C(O)CC(O)(CC(=O)O)C(=O)O` (configuration not stated) | 9.831 |
| `CCNc1nc(C)c(C(=O)N(C)Cc2nc(CC)no2)s1` | -37.62 |
| `CC(C)c1cc(NCC2(Cn3cccn3)CC2)n2nccc2n1` | -3.185 |
| `Cc1ccc(C(=O)NCCn2nc(-n3cncn3)ccc2=O)c(C)c1` | -17.17 |
| `CCN(C)C(=O)[C@H]1C[C@@](CC(C)C)(C(=O)OC)N(C)[C@H]1c1cccnc1` | -23.46 |
| `CS(=O)(=O)c1cccc(C(=O)NCC2(c3ccccc3)CC2)c1` | 9.827 |
| `O=C(NCCOC1CCCC1)c1ccc(-c2ccco2)[nH]c1=O` | -17.86 |
| `CSCCNC(=O)c1coc(COc2ccc3sc(C)nc3c2)n1` | -7.439 |
| `Cn1c2ccccc2c2ncn(CCN3CCOCC3)c(=O)c21` | -45.71 |
| `CCN(CCO)C[C@@H]1CN(c2cc(C(F)(F)F)cc(C)n2)C[C@@H]1CO` | -27.83 |
| `O=C1CN(C(=O)CNC(CC(F)(F)F)c2ccc(F)cc2)CCN1` (configuration not stated) | -17.54 |
| `O=C(O)C(F)(F)F.O=C(O)C(F)(F)F.O=c1cc(Cn2cncn2)nc2n1CCCN(CCN1CCCC1)C2` | 14.15 |
| `Cc1ccc(C(=O)N2CCCC(NC(=O)C(C)C)C2)c(O)c1` (configuration not stated) | 11.6 |
| `CCN1CC(CN(C)Cc2nc(-c3cccc(C)c3)oc2C)CC1=O` (configuration not stated) | -11.48 |
| `Cc1cccc(CN2C[C@@H](C)[C@@]3(CCN(CC(=O)N(C)C)C3=O)C2)c1.O=C(O)C(F)(F)F` | 1.262 |
| `CC(CC(=O)N1CCCN(Cc2nccn2C)CC1)n1cccc1` (configuration not stated) | 0.3731 |
| `COC1CCN(C(=O)CCn2ccc(=O)[nH]c2=O)CC1` | -33.55 |
| `Cc1ccc(NC2CCN(C(=O)Cc3c(C)nn(C)c3C)CC2)nn1` | 10.87 |
| `COc1cccc(Nc2nc(C3CCCNC3)c3ccccn23)c1.Cl` (configuration not stated) | -1.342 |
| `CN1CCCN(C[C@@H]2CN(C(=O)CCc3cn[nH]c3)C[C@@H]2CO)CC1` | -2.175 |
| `OCCN1CCN(Cc2coc(-c3ccc(Cl)cc3)n2)CC1` | 27.26 |
| `Cc1cnn(CC2CCCCN2C(=O)c2cccnc2N(C)C)c1` (configuration not stated) | -2.437 |
| `COc1ccc(Cl)cc1CN(CC(N)=O)C(C)C` | -18.59 |
| `CC(C)CCN1C2(CCN(c3ncccn3)C2)c2ccccc2S1(=O)=O` (configuration not stated) | 1.53 |
| `O=C(O)C(F)(F)F.O=C(O)C(F)(F)F.c1cc(CN2CCc3ncc(CN4CCOCC4)n3CC2)cs1` | -33.67 |
| `C[C@@H]1CN(c2ccc(Cl)cn2)CC[C@@]1(O)C1CCOCC1` | 6.964 |
| `Cc1cnn(CC(C)NCc2nc(-c3ccco3)no2)c1` (configuration not stated) | -11.23 |
| `CNC(=O)CN1CCC(OCC2CCCO2)CC1` (configuration not stated) | 6.267 |
| `CC(=O)N1CCCC1c1ccc(C(=O)N2CCOCC2)s1` (configuration not stated) | -36.57 |
| `Cc1nn(C)c2cn(CC(=O)N3CCc4ccccc4C3)nc12` | 5.854 |
| `O=c1oc(-c2cccs2)nn1CC(O)c1ccccc1` (configuration not stated) | -13.5 |
| `CCN(Cc1cnn(CC)c1)Cc1c(Cl)cncc1Cl` | -60.12 |
| `CCC(CO)N(CC=C(C)C)Cc1ccsc1` (configuration not stated) | -11.19 |
| `CS(=O)(=O)N1CCC(c2ccncn2)CC1` | -5.583 |
| `Cc1noc(CCNS(=O)(=O)N2CCCC2c2ccco2)n1` (configuration not stated) | -20.6 |
| `COc1ncc(-c2ccc(C(N)=O)cc2)c(OC)n1` | 0.8189 |
| `N#Cc1cccnc1NCCNC(=O)N1CCN2CCCCC2C1` (configuration not stated) | -88.99 |
| `CN(C(=O)C(c1c(F)cccc1Cl)N(C)C)c1nccs1` (configuration not stated) | 16.95 |
| `Cc1ccc(C(N)=O)cc1NCCOc1cccc(C#N)c1` | -14.5 |
| `COCCN1CCC2(C1)CN(c1ncc(F)cn1)C2.O=C(O)C(F)(F)F` | -23.56 |
| `CC(C)(C)CN1Cc2cc3c(cc2NCCC1=O)OCO3` | -29.01 |
| `C[C@@H]1CN(C(=O)c2c[nH]c(=O)c(Cl)c2)CC[C@@]1(O)C1CCOCC1` | -4.9 |
| `O=C(CC1CCCC1)NCCS(=O)(=O)N1CCN(c2ccccc2)CC1` | 8.815 |
| `O=C(O)C(F)(F)F.[H][C@]12CN(Cc3ccccc3F)C[C@@]1([H])OCCN(C(C)=O)C2` | -73.74 |
| `CC(C)CSCCN1CCCN(S(C)(=O)=O)CC1` | -22.36 |
| `CCN(C(=O)C1=NN(c2ccccc2)C(=O)CN1)c1ccccc1` | -38.95 |
| `CC(C)(CN1CCC2(CCNCC2)CC1)N1CCOCC1` | -9.038 |
| `CCCSc1ncc(CN(C)CCN2CCCCC2)cn1.O=C(O)CC(O)(CC(=O)O)C(=O)O` | 2.471 |
| `CC1CCc2nc(O)c(C(=O)NCCN(C)C)cc2C1` (configuration not stated) | 19.18 |
| `[H][C@]12CC[C@]([H])(C1)[C@H](Nc1cc(CC)nc3ccnn13)C2` | 24.99 |
| `CCC(C)NS(=O)(=O)Cc1cccc(NC(=O)C(C)C)c1` (configuration not stated) | 18.46 |
| `Cc1cccc(Cn2cc(C)c(N)n2)c1` | -11.62 |
| `Cc1cc(C(=O)N(CC(=O)O)CC(C)C)ccc1F` | -24.79 |
| `Cc1cc(C(=O)NC(C)Cc2cccc(Cl)c2)n(C)n1` (configuration not stated) | -100.7 |